Assay results as given in PubChem BioAssay AID540256 (National Center for Advancing Translational Sciences (NCATS), 2011).
Values joined by “and” are separate entries in the source; they are usually repeats but may differ in a detail not shown here. Equal values may be shown once. The whole screen tested about 300,000 compounds, of which about 3,700 (1.2%) were called active. The shares of active, inactive and inconclusive entries below differ from those in the screen. The call rests on the fitted dose curve; tested in HEK293 cells. Potencies beside an inconclusive call are fits to weak or partial responses and may not hold up.

Assay: qHTS for Inhibitors of binding or entry into cells for Lassa Virus; further: nearly all actives have a fitted effect of over 50% in size
Conditions: Lassa virus pseudotype entry inhibition, cell reporter; activity change, negative = inhibition: at 37.9 µM (top of the series) unless noted
On the % scale 0 is the no-effect control and ±100 the full control effect; potency means the concentration at half of the fitted maximal effect.

Compound	activity change, negative = inhibition	Potency
C/C(=N\NC(=O)c1ccc(N2CCCC2=O)cc1)c1ccncc1	inactive: -9.86% [at 46.1 µM]	
O=C1CC(Sc2ncccn2)C(=O)N1c1ccccc1C(F)(F)F (stereo not drawn)	inconclusive: 45.2% [activator]	
O=C(c1cnn(-c2ccccc2)c1)c1ccccc1O		inconclusive: 22.4 µM [inhibitor, single point]
O=C(Nc1ccccc1N1CCOCC1)c1ccc(N2CCOCC2)c([N+](=O)[O-])c1	inactive: -20.7% [at 46.1 µM]	
COc1ccc(-c2nnc(SC(C)C(=O)Nc3ccc4c(c3)OCCO4)o2)cc1 (stereo not drawn)	inactive: -28.2%	
CCc1c(C)sc2c1CCN(Cc1ccc(C#N)cc1)C2c1ccccc1 (stereo not drawn)		inconclusive: 14.1 µM [inhibitor, single point]
Clc1ccccc1OCc1nnc(-c2ccccc2Br)o1		inconclusive: 35.5 µM [inhibitor, single point]
COc1ccc(-c2nc3cc(NC(=O)COc4ccccc4C)ccc3o2)cc1		inconclusive: 8.91 µM [activator, partial curve, poor fit]
COc1ccccc1CCC(=O)OCC(=O)Nc1ccc(S(N)(=O)=O)cc1		inconclusive: 0.708 µM [inhibitor, single point]
C/C(=N\NC(=S)NCc1ccccc1)c1ccc(Br)cc1		inconclusive: 10 µM [inhibitor, partial curve, poor fit]
CCOc1cc(-c2nc(-c3ccccc3OC)no2)cc(OCC)c1OCC		inconclusive: 12.6 µM [inhibitor, single point]
COCCN(Cc1ccco1)C(=O)C1CCCN(c2ncnc3c2nc2n3CCCCC2)C1 (stereo not drawn)		active: 11.2 µM
CCc1cccc(C)c1NC(=O)CSc1nc2ccccc2nc1Cc1ccccc1	inactive: -0.183% [at 46.1 µM]	
CCc1cc(/C(Cc2ccc3ccccc3n2)=N\O)c(O)cc1O		inconclusive: 35.5 µM [inhibitor, single point]
COc1ccc(-c2cnn3c(N)c(S(=O)(=O)c4ccccc4)cnc23)cc1		inconclusive: 2.06 µM [inhibitor, full curve, poor fit]
Cc1ccc(OCCSc2nc(N)cc(N)n2)cc1		inconclusive: 7.08 µM [activator, partial curve, poor fit]
CCOC(=O)C1CCCN(C(=O)c2ccccc2Oc2ccccc2)C1 (stereo not drawn)	inactive: 0.122%	
CC(C)OCC(O)CS(=O)Cc1ccccc1 (stereo not drawn)	inactive: -6.01%	
CC(C)OC(=O)C1C(=O)CC(C)(O)C(C(=O)OC(C)C)C1c1ccc([N+](=O)[O-])cc1 (stereo not drawn)	inactive: -14.1%	
CCc1ccc(C2c3c(-c4ccccc4O)n[nH]c3C(=O)N2Cc2cccnc2)cc1 (stereo not drawn)		inconclusive: 1.41 µM [inhibitor, full curve, poor fit]
COc1cc(C(=O)NCC(c2ccc(F)cc2)N2CCOCC2)ccc1OCc1ccccc1Cl (stereo not drawn)		inconclusive: 12.6 µM [inhibitor, partial curve, poor fit]
COC(=O)c1sc(NC(=O)CSc2nnnn2C)nc1C		inconclusive: 2.82 µM [inhibitor, partial curve, poor fit]
CCOc1ccc(C(=O)NC(=S)NCc2cccnc2)cc1[N+](=O)[O-]	inactive: -18.3%	

Compound	activity change, negative = inhibition	Potency
O=C(/C=C/c1ccc([N+](=O)[O-])cc1)NCc1cccnc1	inactive: 11.4%	
CCOc1ccc(/C=C/C(=O)Nc2ccc3nc(N(CC)CC)cc(C)c3c2)cc1OC		inconclusive: 35.5 µM [inhibitor, partial curve, poor fit]
CCOC(=O)c1nn(-c2ccc(F)cc2)c2nc(Nc3ccccc3)cc(=O)n12		inconclusive: 0.103 µM [inhibitor, full curve, poor fit]
Cc1ccc(C(=O)Nc2nc(=O)n(C(=O)c3ccccc3C)s2)cc1	inactive: -2.27%	
O=C(CCNS(=O)(=O)c1ccc2c(c1)CCN2C(=O)C1CC1)N1CCN(c2cccc(Cl)c2)CC1		inconclusive: 14.1 µM [inhibitor, partial curve, poor fit]
CC1CCCCC1NC(=O)/C(C#N)=C/C=C/c1ccccc1[N+](=O)[O-] (stereo not drawn)		inconclusive: 3.16 µM [inhibitor, full curve, poor fit]
Cc1ccc(N2CC(C(=O)Nc3nnc(SCC(N)=O)s3)CC2=O)cc1C (stereo not drawn)	inactive: 18.3%	
Cc1cccc(N(C)S(=O)(=O)c2cc(-c3cnc(C4CC4)o3)ccc2C)c1		inconclusive: 35.5 µM [inhibitor, partial curve, poor fit]
c1cn2cc(-c3ccc4c(c3)OCO4)nc2s1		active: 10.3 µM
CC1CC1C(=O)OCc1cc(=O)n2cc(Br)ccc2n1 (stereo not drawn)		inconclusive: 5.62 µM [activator, single point]
O=C1N=C(N2CCOCC2)S/C1=C/c1ccc(-c2ccc(F)cc2)o1		inconclusive: 11.2 µM [inhibitor, partial curve, poor fit]
COc1ccc(Nc2nn3c(=O)c4cc5c(cc4nc3s2)OCO5)c(OC)c1	inconclusive: 8.07% [activator] [at 46.1 µM]	
CCC(C)(C)NC(=O)C(c1ccco1)N(C(=O)CNC(=O)c1cccs1)c1cccnc1 (stereo not drawn)		inconclusive: 0.13 µM [activator, full curve, poor fit]
CN(C1CCCCC1)S(=O)(=O)c1ccc(NC(=O)c2ccco2)cc1		active: 11.2 µM
CCN(CC)S(=O)(=O)c1ccc2[nH]cc(C(=O)NCCC3=CCCCC3)c(=O)c2c1		active: 1.26 µM
CN1C(=O)C2(c3ccccc31)N(c1cccc(C(F)(F)F)c1)C(=O)CS2(=O)=O (stereo not drawn)		inconclusive: 3.98 µM [activator, full curve, poor fit]
Cn1ncc(Cl)c1C(=O)N1CCN(c2cccc(Cl)c2)CC1		inconclusive: 14.1 µM [inhibitor, partial curve]
Cn1cnc([N+](=O)[O-])c1S(=O)(=O)c1ccc(Cl)cc1		active: 20 µM
Oc1c(C(c2ccc(F)cc2)N2CCN(Cc3ccccc3)CC2)sc2nc(-c3ccco3)nn12 (stereo not drawn)		inconclusive: 2 µM [inhibitor, partial curve, poor fit]
N#Cc1cc(C(=O)c2cc(Br)ccc2O)cn(C2CCCCC2)c1=O		inconclusive: 16.4 µM [inhibitor, single point]
C=CCSc1nnc(-c2ccccc2N=Cc2c(C)[nH]n(-c3ccccc3)c2=O)c(=O)[nH]1	inactive: 5.54%	
CCCS(=O)(=O)N1CC(=O)N(c2ccc(C)c(Cl)c2)C(C)(C(=O)NC2CCCCCC2)C1 (stereo not drawn)	inactive: 0.754% [at 46.1 µM]	
COc1cc(CN(C(=O)c2ccccc2F)C2CCS(=O)(=O)C2)cc(OC)c1OC (stereo not drawn)		inconclusive: 6.31 µM [inhibitor, single point]

Compound	activity change, negative = inhibition	Potency
CC(=O)OC1CC(C)N(C(=O)c2ccccc2)c2ccc(C)cc21 (stereo not drawn)	inactive: 4.25%	
CCOC(=O)c1cnc2c(-c3ccccc3)c(-c3ccccc3)nn2c1C	inactive: -22% [at 46.1 µM]	
Cc1ccc(CS(=O)(=O)c2ncc(Cl)c(C(=O)Nc3nnc(C(C)C)s3)n2)cc1		inconclusive: 11.2 µM [inhibitor, partial curve, poor fit] and inconclusive: 35.5 µM [inhibitor, single point]
CCc1ccc(-n2nc(CO)c(C(=O)NC)n2)cc1	inactive: 4.7% [at 46.1 µM]	
CCOC(=O)COc1ccc(Br)cc1/C=C/c1[nH]c(=O)[nH]c(=O)c1[N+](=O)[O-]		inconclusive: 25.1 µM [inhibitor, partial curve, poor fit]
CCC(=O)N1CCc2cc(CNS(=O)(=O)c3ccc(CC(C)C)cc3)ccc21	inactive: 7.34% [at 46.1 µM]	
O=C(NC1CCCCCCC1)c1ccc(Br)cc1		inconclusive: 35.5 µM [inhibitor, single point]
O=C(Cn1nnc(-c2ccccc2)n1)N/N=C/c1cccc([N+](=O)[O-])c1O		inconclusive: 35.5 µM [inhibitor, partial curve, poor fit]
COc1cccc(NC(=O)CN(C)C(=O)c2cccc(S(=O)(=O)N3CCN(c4ccc(F)cc4)CC3)c2)c1		inconclusive: 15.8 µM [inhibitor, single point]
O=S(=O)(NCc1cccnc1)c1ccc(Cl)c2ccccc12	inactive: 1.28% [at 46.1 µM]	
CCCn1c(-c2nonc2N)nc2ccccc21	inactive: -1.82%	
CNCCC(Oc1ccccc1OC)c1ccccc1 (stereo not drawn)		inconclusive: 32.6 µM [inhibitor, single point]
Cc1c(Cl)cccc1NC(=O)Nc1ccc2snnc2c1		inconclusive: 35.5 µM [inhibitor, single point]
CCCC(=O)Nc1ccc2nc(SCC(=O)Nc3ccc(N4CCOCC4)c(Cl)c3)sc2c1		inconclusive: 35.5 µM [inhibitor, single point]
COC(=O)c1ccc(NC(=O)CN(Cc2ccccc2)S(=O)(=O)c2ccc(Cl)cc2)cc1		inconclusive: 20 µM [inhibitor, single point]
CCNC(=O)c1ccc2c(c1)S(=O)(=O)c1ccccc1C2=O	inactive: 2.49%	
CCc1ccc(N(C(=O)c2csnn2)C(C(=O)NC2CCCC2)c2cccnc2)cc1 (stereo not drawn)		inconclusive: 14.1 µM [inhibitor, partial curve, poor fit]
COc1ccc(C(O)(CCc2ccccc2)CCN2CCCCC2)cc1 (stereo not drawn)		inconclusive: 35.5 µM [inhibitor, single point]
COc1ccccc1CNC(=O)Cn1c(=O)nc(-c2ccccc2)c2ccccc21		inconclusive: 0.891 µM [activator, partial curve, poor fit]
CCOC(=O)c1ccc(NC(=O)c2cc3c(s2)CCC3)cc1	inactive: -12%	
COC(=O)C(c1ccc(OC)c(OC)c1)C1c2ccccc2C=C(C)N1C(=O)OC (stereo not drawn)		inconclusive: 0.841 µM [activator, single point]
Cc1ccc(C(=O)O)cc1NC(=O)C1CCN(S(=O)(=O)c2ccc3c(c2)OCCO3)CC1	inactive: 4.08% [at 46.1 µM]	

4 structures out of the list, ordered by molecular weight, ascending:
Compound	activity change, negative = inhibition	Potency
Clc1ccccc1OCc1nnc(-c2ccccc2Br)o1		inconclusive: 35.5 µM [inhibitor, single point]
O=C(Cn1nnc(-c2ccccc2)n1)N/N=C/c1cccc([N+](=O)[O-])c1O		inconclusive: 35.5 µM [inhibitor, partial curve, poor fit]
CCOc1cc(-c2nc(-c3ccccc3OC)no2)cc(OCC)c1OCC		inconclusive: 12.6 µM [inhibitor, single point]
COC(=O)c1ccc(NC(=O)CN(Cc2ccccc2)S(=O)(=O)c2ccc(Cl)cc2)cc1		inconclusive: 20 µM [inhibitor, single point]
